{"source": "PubChem BioAssay AID504774 (Drosophila RNAi Screening Center, 2011)", "assay": "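Knock-downs that shift viability of MMS-exposed cells relative to untreated ones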 (primary screen)", "system": "Drosophila Kc167 cells", "knock-down reagent": "long dsRNA against Drosophila genes, about 0.25 µg dsRNA per well", "timing": "about 6 days: 3 days knock-down, then 3 days with or without MMS", "conditions": "methyl methanesulphonate 0.004% (w/v) for 3 days after knock-down", "detection": "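ATP-dependent luminescence as a measure of live cells in MMS-exposed wells, quantile normalised within each plate, with replicate values also given as a mean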", "scale": "mean viability with MMS and viability with MMS: higher = more surviving cells after MMS", "note": "The deposit covers about 23,000 reagents; shown is a random part of those with a known target gene and a result. 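Values are quantile-normalised luminescence on an arbitrary scale; higher means more cells surviving MMS.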 Reagents against one gene are numbered here. Names joined by + are all predicted targets of the reagent. Not all columns of the deposit are shown."}
{"gene": "CG9330 (GeneID 40131)", "reagent no.": 1, "mean viability with MMS": 3.57e6, "viability with MMS, replicate 1": 4.09e6}
{"gene": "JMJD5 (GeneID 38097)", "reagent no.": 1, "mean viability with MMS": 3.57e6, "viability with MMS, replicate 1": 4.00e6}
{"gene": "CG11400 (GeneID 36935)", "reagent no.": 1, "mean viability with MMS": 3.57e6, "viability with MMS, replicate 1": 4.04e6}
{"gene": "CR10032 (GeneID 40877)", "reagent no.": 1, "mean viability with MMS": 3.64e6, "viability with MMS, replicate 1": 4.18e6}
{"gene": "prage (GeneID 31136)", "reagent no.": 1, "mean viability with MMS": 3.45e6, "viability with MMS, replicate 1": 4.02e6}
{"gene": "prage (GeneID 31136)", "reagent no.": 2, "mean viability with MMS": 3.18e6, "viability with MMS, replicate 1": 3.78e6}
{"gene": "prage (GeneID 31136)", "reagent no.": 3, "mean viability with MMS": 3.43e6, "viability with MMS, replicate 1": 3.90e6}
{"gene": "prage (GeneID 31136)", "reagent no.": 4, "mean viability with MMS": 3.49e6, "viability with MMS, replicate 1": 3.85e6}
{"gene": "Best4 (GeneID 39660)", "reagent no.": 1, "mean viability with MMS": 3.45e6, "viability with MMS, replicate 1": 3.99e6}
{"gene": "Lrrk (GeneID 42447)", "reagent no.": 1, "mean viability with MMS": 3.81e6, "viability with MMS, replicate 1": 4.24e6}
{"gene": "Lrrk (GeneID 42447)", "reagent no.": 2, "mean viability with MMS": 3.51e6, "viability with MMS, replicate 1": 3.91e6}
{"gene": "CG8661 (GeneID 32720)", "reagent no.": 1, "mean viability with MMS": 3.29e6, "viability with MMS, replicate 1": 3.75e6}
{"gene": "BicD (GeneID 35051)", "reagent no.": 1, "mean viability with MMS": 3.26e6, "viability with MMS, replicate 1": 3.63e6}
{"gene": "CG10730 (GeneID 35291)", "reagent no.": 1, "mean viability with MMS": 3.54e6, "viability with MMS, replicate 1": 3.95e6}
{"gene": "NKCC (GeneID 40663)", "reagent no.": 1, "mean viability with MMS": 3.50e6, "viability with MMS, replicate 1": 3.78e6}
{"gene": "NKCC (GeneID 40663)", "reagent no.": 2, "mean viability with MMS": 3.61e6, "viability with MMS, replicate 1": 4.12e6}
{"gene": "CG42565 (GeneID 37598)", "reagent no.": 1, "mean viability with MMS": 3.79e6, "viability with MMS, replicate 1": 4.05e6}
{"gene": "apt (GeneID 37734)", "reagent no.": 1, "mean viability with MMS": 3.17e6, "viability with MMS, replicate 1": 3.59e6}
{"gene": "apt (GeneID 37734)", "reagent no.": 2, "mean viability with MMS": 3.17e6, "viability with MMS, replicate 1": 3.49e6}
{"gene": "GstE5 (GeneID 37110)", "reagent no.": 1, "mean viability with MMS": 3.64e6, "viability with MMS, replicate 1": 4.16e6}

Next part (6 carried over from the part before).
{"gene": "NKCC (GeneID 40663)", "reagent no.": 1, "mean viability with MMS": 3.50e6, "viability with MMS, replicate 1": 3.78e6}
{"gene": "NKCC (GeneID 40663)", "reagent no.": 2, "mean viability with MMS": 3.61e6, "viability with MMS, replicate 1": 4.12e6}
{"gene": "CG42565 (GeneID 37598)", "reagent no.": 1, "mean viability with MMS": 3.79e6, "viability with MMS, replicate 1": 4.05e6}
{"gene": "apt (GeneID 37734)", "reagent no.": 1, "mean viability with MMS": 3.17e6, "viability with MMS, replicate 1": 3.59e6}
{"gene": "apt (GeneID 37734)", "reagent no.": 2, "mean viability with MMS": 3.17e6, "viability with MMS, replicate 1": 3.49e6}
{"gene": "GstE5 (GeneID 37110)", "reagent no.": 1, "mean viability with MMS": 3.64e6, "viability with MMS, replicate 1": 4.16e6}
{"gene": "geko (GeneID 50263)", "reagent no.": 1, "mean viability with MMS": 3.61e6, "viability with MMS, replicate 1": 4.03e6}
{"gene": "geko (GeneID 50263)", "reagent no.": 2, "mean viability with MMS": 3.55e6, "viability with MMS, replicate 1": 3.91e6}
{"gene": "CG13008 (GeneID 32654)", "reagent no.": 1, "mean viability with MMS": 3.55e6, "viability with MMS, replicate 1": 4.06e6}
{"gene": "CG13008 (GeneID 32654)", "reagent no.": 2, "mean viability with MMS": 3.63e6, "viability with MMS, replicate 1": 4.09e6}
{"gene": "ovm + CG31975", "reagent no.": 1, "mean viability with MMS": 3.62e6, "viability with MMS, replicate 1": 4.10e6}
{"gene": "crm (GeneID 31268)", "reagent no.": 1, "mean viability with MMS": 3.65e6, "viability with MMS, replicate 1": 4.05e6}
{"gene": "CG15550 (GeneID 43666)", "reagent no.": 1, "mean viability with MMS": 3.48e6, "viability with MMS, replicate 1": 3.99e6}
{"gene": "Acp1 (GeneID 34052)", "reagent no.": 1, "mean viability with MMS": 3.60e6, "viability with MMS, replicate 1": 4.36e6}
{"gene": "CG9752 (GeneID 37431)", "reagent no.": 1, "mean viability with MMS": 3.75e6, "viability with MMS, replicate 1": 4.11e6}
{"gene": "CG8245 (GeneID 35503)", "reagent no.": 1, "mean viability with MMS": 3.71e6, "viability with MMS, replicate 1": 4.06e6}
{"gene": "mRpL15 (GeneID 40261)", "reagent no.": 1, "mean viability with MMS": 3.73e6, "viability with MMS, replicate 1": 4.15e6}
{"gene": "RhoGAPp190 (GeneID 32743)", "reagent no.": 1, "mean viability with MMS": 3.50e6, "viability with MMS, replicate 1": 4.03e6}
{"gene": "RhoGAPp190 (GeneID 32743)", "reagent no.": 2, "mean viability with MMS": 3.59e6, "viability with MMS, replicate 1": 4.17e6}
{"gene": "CG15876 (GeneID 38573)", "reagent no.": 1, "mean viability with MMS": 3.61e6, "viability with MMS, replicate 1": 4.11e6}
{"gene": "CG32189 (GeneID 317902)", "reagent no.": 1, "mean viability with MMS": 3.67e6, "viability with MMS, replicate 1": 4.38e6}
{"gene": "et (GeneID 32975)", "reagent no.": 1, "mean viability with MMS": 3.45e6, "viability with MMS, replicate 1": 3.92e6}
{"gene": "CG32053 (GeneID 39178)", "reagent no.": 1, "mean viability with MMS": 3.56e6, "viability with MMS, replicate 1": 4.04e6}
{"gene": "CG5151 (GeneID 39772)", "reagent no.": 1, "mean viability with MMS": 3.08e6, "viability with MMS, replicate 1": 3.56e6}
{"gene": "CG5151 (GeneID 39772)", "reagent no.": 2, "mean viability with MMS": 3.50e6, "viability with MMS, replicate 1": 4.07e6}
{"gene": "Ulp1 (GeneID 32910)", "reagent no.": 1, "mean viability with MMS": 3.59e6, "viability with MMS, replicate 1": 4.06e6}
{"gene": "SmF (GeneID 36314)", "reagent no.": 1, "mean viability with MMS": 3.13e6, "viability with MMS, replicate 1": 3.11e6}
{"gene": "up (GeneID 32314)", "reagent no.": 1, "mean viability with MMS": 3.51e6, "viability with MMS, replicate 1": 4.05e6}
{"gene": "CG14625 (GeneID 31066)", "reagent no.": 1, "mean viability with MMS": 3.55e6, "viability with MMS, replicate 1": 4.10e6}
{"gene": "CG17477 (GeneID 42067)", "reagent no.": 1, "mean viability with MMS": 3.57e6, "viability with MMS, replicate 1": 4.13e6}
{"gene": "CG34034 (GeneID 3885584)", "reagent no.": 1, "mean viability with MMS": 3.45e6, "viability with MMS, replicate 1": 3.88e6}
